In the test the target is Flag-VP35 (Zaire ebolavirus) (UniProt Q05127). Briefly: co-IP.

By UniProt entry, the sequences of proteins in these tests, tags left out.
UniProt Q05127: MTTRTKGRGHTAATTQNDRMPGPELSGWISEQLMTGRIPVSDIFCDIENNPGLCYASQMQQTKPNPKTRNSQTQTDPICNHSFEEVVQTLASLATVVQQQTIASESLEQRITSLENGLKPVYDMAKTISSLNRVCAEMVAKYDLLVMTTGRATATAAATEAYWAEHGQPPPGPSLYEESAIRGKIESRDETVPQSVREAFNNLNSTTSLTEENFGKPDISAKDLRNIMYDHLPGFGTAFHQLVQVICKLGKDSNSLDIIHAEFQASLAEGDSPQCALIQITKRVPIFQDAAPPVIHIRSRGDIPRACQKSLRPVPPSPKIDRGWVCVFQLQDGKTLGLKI
UniProt Q05128: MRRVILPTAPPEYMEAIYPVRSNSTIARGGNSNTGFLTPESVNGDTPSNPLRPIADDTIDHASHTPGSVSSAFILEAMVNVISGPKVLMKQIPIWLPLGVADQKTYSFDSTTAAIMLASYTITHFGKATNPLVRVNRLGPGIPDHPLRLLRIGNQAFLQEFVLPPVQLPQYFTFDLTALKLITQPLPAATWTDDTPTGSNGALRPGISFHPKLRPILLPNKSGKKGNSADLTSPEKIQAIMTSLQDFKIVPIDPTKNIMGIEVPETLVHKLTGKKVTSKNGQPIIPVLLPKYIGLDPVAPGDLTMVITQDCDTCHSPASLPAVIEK

No constants are given. Whether binding was seen depends on the method and setting. Binding seen in cells or lysates may run through a third protein. Some binding calls cover weakened binding; strength is not graded here.

For the substance Myc-VP40 (from UniProt Q05128 1-326), the binding result is listed as “binds”.

Source of the values: PMC8783937.
